Assay results reported in paper PMC11085213, “Plastid Molecular Chaperone HSP90C Interacts with the SecA1 Subunit of Sec Translocase for Thylakoid Protein Transport” (Plants, 2024).
Read-outs that look alike come from different tables or passages of the source. These are yes or no findings as the source states them, for the method shown. In cells and extracts the contact can be indirect. Some binding calls cover weakened binding; strength is not graded here. For some of these results: Where a sequence is shown, tags or fusion partners need not be part of it.

Protein sequences, listed by entry. Tags and fused reporters are not part of them. Residues count along the entry.
UniProt Q9SYI0, residues 73-1022: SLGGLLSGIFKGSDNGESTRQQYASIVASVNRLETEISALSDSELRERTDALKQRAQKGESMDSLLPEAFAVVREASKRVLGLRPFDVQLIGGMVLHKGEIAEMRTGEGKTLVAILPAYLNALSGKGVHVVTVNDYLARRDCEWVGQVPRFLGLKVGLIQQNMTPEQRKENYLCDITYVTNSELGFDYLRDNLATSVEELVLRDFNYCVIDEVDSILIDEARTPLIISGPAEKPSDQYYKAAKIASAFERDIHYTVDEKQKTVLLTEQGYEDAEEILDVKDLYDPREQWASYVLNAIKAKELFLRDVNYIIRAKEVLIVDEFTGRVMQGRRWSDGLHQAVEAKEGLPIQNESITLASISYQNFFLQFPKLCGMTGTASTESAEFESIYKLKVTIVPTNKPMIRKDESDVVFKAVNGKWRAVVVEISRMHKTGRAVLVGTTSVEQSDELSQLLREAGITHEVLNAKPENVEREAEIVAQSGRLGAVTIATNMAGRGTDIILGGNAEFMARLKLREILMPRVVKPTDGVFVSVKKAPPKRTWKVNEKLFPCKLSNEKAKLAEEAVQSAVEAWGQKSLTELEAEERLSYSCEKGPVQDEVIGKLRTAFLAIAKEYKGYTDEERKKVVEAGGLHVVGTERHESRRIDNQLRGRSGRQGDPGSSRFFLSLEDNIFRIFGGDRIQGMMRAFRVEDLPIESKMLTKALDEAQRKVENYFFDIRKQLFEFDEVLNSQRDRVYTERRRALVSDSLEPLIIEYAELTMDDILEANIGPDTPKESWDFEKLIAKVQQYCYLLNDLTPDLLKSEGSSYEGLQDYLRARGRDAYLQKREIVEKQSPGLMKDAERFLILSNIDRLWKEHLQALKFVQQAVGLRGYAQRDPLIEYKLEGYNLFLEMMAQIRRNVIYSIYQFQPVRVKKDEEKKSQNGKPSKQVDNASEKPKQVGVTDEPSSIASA
UniProt P23321, residues 1-85: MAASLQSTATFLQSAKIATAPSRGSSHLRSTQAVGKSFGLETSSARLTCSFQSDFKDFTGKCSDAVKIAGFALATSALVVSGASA

How the values were obtained:
Assay in all cases: split reporter; YFP N- and C-half fusions transiently co-expressed in N. benthamiana mesophyll cells, confocal imaging of chloroplasts after 48 h; some samples treated with 10 mM sodium azide or 30 μM geldanamycin before imaging
[1] = target: SecA1-n/cYFP (Arabidopsis) (UniProt Q9SYI0)
[2] = target: PsbO1^1–85-n/cYFP (UniProt P23321)
[3] = target: SecA1-n/cYFP (Arabidopsis) (UniProt Q9SYI0); remark: listed apart in the source

Row | Molecule | binding [1] | further results
1 | SecA1-n/cYFP (from UniProt Q9SYI0 73-1022) | binds | 
2 | PsbO1^1–85-n/cYFP (from UniProt P23321 1-85) (domain or fragment) | binds | 
3 | HSP90C-c/nYFP (protein, UniProt Q9SIF2 61-780) CDAAVAEKETTEEGSGEKFEYQAEVSRLLDLIVHSLYSHKEVFLRELVSNASDALDKLRFLSVTEPSLLGDGGDLEIRIKPDPDNGTITITDTGIGMTKEELIDCLGTIAQSGTSKFLKALKENKDLGADNGLIGQFGVGFYSAFLVAEKVVVSTKSPKSDKQYVWESVADSSSYLIREETDPDNILRRGTQITLYLREDDKYEFAESTRIKNLVKNYSQFVGFPIYTWQEKSRTIEVEEDEPVKEGEEGEPKKKKTTKTEKYWDWELANETKPLWMRNSKEVEKGEYNEFYKKAFNEFLDPLAHTHFTTEGEVEFRSILYIPGMGPLNNEDVTNPKTKNIRLYVKRVFISDDFDGELFPRYLSFVKGVVDSDDLPLNVSREILQESRIVRIMRKRLIRKTFDMIQEISESENKEDYKKFWENFGRFLKLGCIEDTGNHKRITPLLRFFSSKNEEELTSLDDYIENMGENQKAIYYLATDSLKSAKSAPFLEKLIQKDIEVLYLVEPIDEVAIQNLQTYKEKKFVDISKEDLELGDEDEVKDREAKQEFNLLCDWIKQQLGDKVAKVQVSNRLSSSPCVLVSGKFGWSANMERLMKAQALGDTSSLEFMRGRRILEINPDHPIIKDLNAACKNAPESTEATRVVDLLYDTAIISSGFTPDSPAELGNKIYEMMAMAVGGRWGRVEEEEESSTVNEGDDKSGETEVVEPSEVRAESDPWQD |  | binding [2]: binds
4 | SecY1-c/nYFP (protein, UniProt Q38885 68-551) SSEASVFDPLGINPDETSGLSSIWESFVSLLSPSFESSSGNRRDKPSSGRGVAAAIEDSSIDFGDFFKGPLPGKFLKLLGFLALSRLGIYIPLGGVNREAFVGNLDQNSILSTLDTFSGGGIGRLGICSLGIVPFINAQIVFQLLAQVYPKLQDLQKKEGEAGRKKILQYTRYASVGFAIVQAIGQVFYLRPYVNDFSTEWVVSSVTLLTLGSVLTTYIGERISDLKLGNGTSLLIFTSIISYLPASFGRTTAEALQEGNYTGLGTIVVSFLLLVLGIVYVQEAERKIPLNYASRYTSKAGGLQKSAYLPFKVNSAGVMPIIFSTSSLALPATLARFTGISALKNVAFALTPGGSFYLPTNILLIAFFNYYYTFLQLDPDDVSEQLKRQGASIPLVRPGKSTALFIKTVLGRISVLGSAFLAVLAAGPAVVEQITHLTAFRGFAGTSVLILVGCATDTARKVQAEIISQKYKNIEFYELDKYDP |  | binding [3]: binds
